Assay results published in patent US9526799B2, “Low density lipoprotein receptor-mediated siRNA delivery” (Arrowhead Research Corporation, priority 2007, dated 2016).
At least one peptide structure holds a part that was inferred or is arguable (an end, a ring closure or a residue). Where no end group is shown, it is not given here. [ ]: non-standard residue; d: D form.

System: GTM-3 cells
Assay: Uptake of siGLO siRNA by GTM-3 cells measured by flow cytometry (FACS)
Format: cell-based
Conditions: siGLO siRNA 100 nM final, siRNA:peptide 1:10 molar ratio, harvested after 24 hours

Row | Molecule | uptake of siGLO siRNA (result in words) | cells with increased fluorescence signal (siGLO siRNA uptake)
1 | N=C(N)NCCC[C@@H](N)C(=O)N[C@H](CCCNC(=N)N)C(=O)N[C@H](CCCNC(=N)N)C(=O)N[C@H](CCCNC(=N)N)C(=O)N[C@H](CCCNC(=N)N)C(=O)N[C@H](CCCNC(=N)N)C(=O)N[C@H](CCCNC(=N)N)C(=O)N[C@H](CCCNC(=N)N)C(=O)N[C@H](CCCNC(=N)N)C(=O)O [9×Arg peptide] | did not enhance uptake | 
2 | SVIDALQYKLEGTTRLTRKRGLKLATALSLSNKFVEGSGG[dR][dR][dR][dR][dR][dR][dR][dR][dR] [apoB-9×Arg peptide] | enhanced uptake of the siGLO siRNA significantly | approximately 80%
